Data as given in patent US6492562B1, “Racemic thioesters for production of polyketides” (Kosan Biosciences, Inc., priority 1999, dated 2002).

Test system: Streptomyces coelicolor CH999/pJRJ2
Experiment: Comparative feeding of diketide N-acylcysteamine thioesters; production of 15-methyl-6-dEB monitored by HPLC
Format: cell-based
Conditions: cultures fed 0.5 mM diketide thioester 2 days post-inoculation; production 6 days after feeding; HPLC with evaporative light scattering; preliminary results

Structure (SMILES)	Yield of 15-methyl-6-dEB
CCC[C@@H](O)[C@H](C)C(=O)SCCNC(=O)CC (relative stereo) [Propionyl, (±)-(2R*,3S*)-2-Methyl-3-hydroxyhexanoate N-Propionylcysteamine Thioester]	35 mg/L
CCCCCC(=O)NCCSC(=O)[C@@H](C)[C@H](O)CCC (relative stereo) [Hexanoyl, (±)-(2R*,3S*)-2-Methyl-3-hydroxyhexanoate N-Hexanoylcysteamine Thioester]	33 mg/L
CCCCC(=O)NCCSC(=O)[C@@H](C)[C@H](O)CCC (relative stereo) [Pentanoyl, (±)-(2R*,3S*)-2-Methyl-3-hydroxyhexanoate N-Pentanoylcysteamine Thioester]	35 mg/L
CCC[C@@H](O)[C@H](C)C(=O)SCCNC(C)=O (relative stereo) [Acetyl, (±)-(2R*,3S*)-2-Methyl-3-hydroxyhexanoate N-Acetylcysteamine Thioester]	26 mg/L
CCCCCCCC(=O)NCCSC(=O)[C@@H](C)[C@H](O)CCC (relative stereo) [Octanoyl, (±)-(2R*,3S*)-2-Methyl-3-hydroxyhexanoate N-Octanoylcysteamine Thioester]	23 mg/L
CCCC(=O)NCCSC(=O)[C@@H](C)[C@H](O)CCC (relative stereo) [Butyryl, (±)-(2R*,3S*)-2-Methyl-3-hydroxyhexanoate N-Butyrylcysteamine Thioester]	30 mg/L
CCCCCCC(=O)NCCSC(=O)[C@@H](C)[C@H](O)CCC (relative stereo) [Heptanoyl, (±)-(2R*,3S*)-2-Methyl-3-hydroxyhexanoate N-Heptanoylcysteamine Thioester]	27 mg/L
